Measurements reported in PubChem BioAssay AID504793 (Drosophila RNAi Screening Center, 2011).
The screen tested about 23,000 reagents; shown is an unselected part of those that have a named target and a result. Over the whole deposit, 62 (0.27%) are marked active. 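Calls come from follow-up tests whose scores are not deposited, so confirmed genes may have low counts here; counts are not normalised per plate.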 Raw values are not corrected between plates. The numbers tell different reagents against one gene apart. Names joined by + are all predicted targets of the reagent.

Assay: 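Knock-downs allowing continued mitosis even though DNA is damaged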 (primary screen)
System: Drosophila S2R+ cells
Reagent: long dsRNA against Drosophila genes, about 0.25 µg dsRNA per well
Duration: 4 days of dsRNA, then 4 hours of drug before read-out
Challenge: doxorubicin 0.5 µM for 4 hours to cause double-strand breaks, in cells also given a low, harmless dose of dsRNA against nbs to sensitise the assay
Detection: 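Mitotic index as the number of phospho-histone H3-positive cells in each well following doxorubicin, given as raw counts without normalisation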
Scale: mitotic cells: higher = more cells in mitosis, weaker G2 arrest
Rule for the call: 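a call needs confirmation in secondary tests, with other dsRNAs and a check of mitotic timing without damage, not just a high primary count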
Meaning of the calls: active = confirmed in follow-up tests; inactive = not confirmed

| Target gene | reagent no. | mitotic cells, replicate 1 | Outcome |
| --- | --- | --- | --- |
| CG31224 | 1 | 11 | inactive |
| CG31224 | 2 | 8 | inactive |
| Cyp301a1 (Cytochrome P450 301a1) | 1 | 9 | inactive |
| lectin-28C | 1 | – | inactive |
| lectin-28C | 2 | 11 | inactive |
| CG32767 | 1 | 9 | inactive |
| CG32767 | 2 | 4 | inactive |
| UQCR-C2 (Ubiquinol-cytochrome c reductase core protein 2) | 1 | 6 | inactive |
| UQCR-C2 (Ubiquinol-cytochrome c reductase core protein 2) | 2 | 1 | inactive |
| ImpE1 (Ecdysone-inducible gene E1) | 1 | 3 | inactive |
| ImpE1 (Ecdysone-inducible gene E1) | 2 | 5 | inactive |
| ImpE1 (Ecdysone-inducible gene E1) | 3 | 8 | inactive |
| uzip (unzipped) | 1 | 7 | inactive |
| uzip (unzipped) | 2 | 13 | inactive |
| MBD-like (Methyl-CpG binding domain protein-like) | 1 | 4 | inactive |
| Su(fu) (Suppressor of fused) | 1 | 7 | inactive |
| CG7126 | 1 | 15 | inactive |
| CG7126 | 2 | 4 | inactive |
| CG9636 | 1 | 3 | inactive |
| CG16853 | 1 | 5 | inactive |
| alpha4GT1 (alpha1,4-galactosyltransferase 1) | 1 | 4 | inactive |
| CG9259 | 1 | 2 | inactive |
| Mst36Fb (Male-specific transcript 36Fb) | 1 | 1 | inactive |
| CG32055 | 1 | 5 | inactive |
| Larp7 (La related protein 7) | 1 | 19 | inactive |
| Larp7 (La related protein 7) | 2 | 2 | inactive |
| Ppt1 (Palmitoyl-protein thioesterase 1) | 1 | 5 | inactive |
| tbc (trabuco) | 1 | 2 | inactive |
| tbc (trabuco) | 2 | 15 | inactive |
| tbc (trabuco) | 3 | 11 | inactive |
| CG8289 | 1 | 5 | inactive |
| CG8289 | 2 | 8 | inactive |
| CG2993 | 1 | 4 | inactive |
| CG2993 | 2 | 4 | inactive |
| CG2993 | 3 | 17 | inactive |
| CG8675 | 1 | 3 | inactive |
| CG8675 | 2 | 13 | inactive |
| snk (snake) | 1 | 8 | inactive |
| CG3894 | 1 | 14 | inactive |
| CG3894 | 2 | 9 | inactive |
| CG3894 | 3 | 10 | inactive |
| wde (windei) | 1 | 10 | inactive |

Ordered by “mitotic cells, replicate 1” (descending): 6 of the entries above
| Target gene | reagent no. | mitotic cells, replicate 1 | Outcome |
| --- | --- | --- | --- |
| CG16853 | 1 | 5 | inactive |
| CG32055 | 1 | 5 | inactive |
| alpha4GT1 (alpha1,4-galactosyltransferase 1) | 1 | 4 | inactive |
| CG9636 | 1 | 3 | inactive |
| CG9259 | 1 | 2 | inactive |
| Mst36Fb (Male-specific transcript 36Fb) | 1 | 1 | inactive |

The listing continues.
| Target gene | reagent no. | mitotic cells, replicate 1 | Outcome |
| --- | --- | --- | --- |
| hay (haywire) | 1 | 8 | inactive |
| Prp5 (pre-mRNA processing factor 5) | 1 | 6 | inactive |
| Prp5 (pre-mRNA processing factor 5) | 2 | 12 | inactive |
| CG14710 | 1 | 10 | inactive |
| pps (protein partner of snf) | 1 | 9 | inactive |
| pps (protein partner of snf) | 2 | 24 | inactive |
| pps (protein partner of snf) | 3 | 30 | inactive |
| CG14834 | 1 | 1 | inactive |
| CG14834 | 2 | 5 | inactive |
| TMEM216 + CG11760 | 1 | 8 | inactive |
| eIF2alpha (eukaryotic translation initiation factor 2 subunit alpha) | 1 | 3 | inactive |
| Ccp84Ac | 1 | 5 | inactive |
| Ccp84Ac | 2 | 2 | inactive |
| CG32983 | 1 | 13 | inactive |
| Dh44 (Diuretic hormone 44) | 1 | 1 | inactive |
| Dh44 (Diuretic hormone 44) | 2 | 4 | inactive |
| Taf1 (TBP-associated factor 1) | 1 | 8 | inactive |
| Taf1 (TBP-associated factor 1) | 2 | 3 | inactive |
| CG7900 | 1 | 9 | inactive |
| CG7900 | 2 | 11 | inactive |
| Rala (Ras-like protein A) | 1 | 8 | inactive |
| Rala (Ras-like protein A) | 2 | 6 | inactive |
| Osi18 (Osiris 18) | 1 | 5 | inactive |
| CG4669 | 1 | 5 | inactive |
| CG10631 | 1 | 1 | inactive |
| flz (filzig) | 1 | 6 | inactive |
| BoYb | 1 | 4 | inactive |
| Fcp3C (Follicle cell protein 3C) | 1 | 5 | inactive |
| veli | 1 | 8 | inactive |
| veli | 2 | 6 | inactive |
| CG15601 | 1 | 9 | inactive |
| CCT3 (Chaperonin containing TCP1 subunit 3) | 1 | 147 | inactive |
| eve (even skipped) | 1 | 10 | inactive |
